Target: T1, influx peptide transporter (Homo sapiens, UniProt Q12864)
T1 sequence (Q12864 23-832 K115E/E734D/E739A): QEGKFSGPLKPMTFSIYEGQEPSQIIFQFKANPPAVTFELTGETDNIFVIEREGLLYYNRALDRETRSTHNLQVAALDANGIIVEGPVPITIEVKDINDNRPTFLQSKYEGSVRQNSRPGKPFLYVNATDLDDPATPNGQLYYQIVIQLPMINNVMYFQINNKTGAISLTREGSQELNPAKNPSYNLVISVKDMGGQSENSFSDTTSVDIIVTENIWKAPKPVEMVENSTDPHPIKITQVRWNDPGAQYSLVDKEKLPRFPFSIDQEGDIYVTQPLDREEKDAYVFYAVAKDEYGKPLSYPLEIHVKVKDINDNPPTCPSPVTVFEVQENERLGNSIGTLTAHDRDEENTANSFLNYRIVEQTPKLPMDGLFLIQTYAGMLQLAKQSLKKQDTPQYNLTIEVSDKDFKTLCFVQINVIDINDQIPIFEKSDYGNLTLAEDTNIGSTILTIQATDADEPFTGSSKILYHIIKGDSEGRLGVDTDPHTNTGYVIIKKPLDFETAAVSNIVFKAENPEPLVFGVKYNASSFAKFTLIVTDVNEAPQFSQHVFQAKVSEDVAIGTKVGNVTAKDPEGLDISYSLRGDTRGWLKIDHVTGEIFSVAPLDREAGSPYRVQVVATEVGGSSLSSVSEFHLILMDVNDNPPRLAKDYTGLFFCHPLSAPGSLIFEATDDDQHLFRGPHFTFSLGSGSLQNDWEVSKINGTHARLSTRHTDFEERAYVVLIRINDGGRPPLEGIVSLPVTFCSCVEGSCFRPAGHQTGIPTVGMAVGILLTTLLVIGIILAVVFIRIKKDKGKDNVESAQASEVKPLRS
Conditions: Clone 9 versus control cells

SMILES: CC1=C(C(=O)O)N2C(=O)[C@@H](NC(=O)[C@H](N)c3ccccc3)[C@H]2SC1 [Cephalexin, cephalexin]
- uptake of [14C]cephalexin by transfectant compared with the control: significantly higher

Reference: US5710018A, “Mammalian influx peptide transporter” (Eli Lilly and Company, priority 1995, dated 1998)
